Measured values reported in PMC11915804, “In situ structures of the contractile nanomachine myophage Mu in both its extended and contracted states” (Journal of Virology, 2025).
No constants are given. Whether binding was seen depends on the method and setting. Binding can be weak; no strength is given.

Experiments:
tail sheath protein gp39 [1] = molecular target: T1, tail sheath protein gp39 (phage Mu, UniProt P79678 1-495); test: cryo-EM structure; purified phage Mu virions in the contracted state: diluted 10-fold with 5 M urea, 2 h at 37°C, urea removed by ultrafiltration; baseplate, DNA and TMP lost; 3.6 Å (portal-adaptor), 3.8 Å (terminator-tail); both purified
T1 construct: tail sheath protein gp39 of myophage Mu, as it stands in the virion; Hexameric rings, 30 of them stacked in the tail; Model deposited here; source: phage Mu virions grown on E. coli (ATCC 23724), purified (PEG 8000/NaCl precipitation, CsCl gradient)
T1 sequence (looked up): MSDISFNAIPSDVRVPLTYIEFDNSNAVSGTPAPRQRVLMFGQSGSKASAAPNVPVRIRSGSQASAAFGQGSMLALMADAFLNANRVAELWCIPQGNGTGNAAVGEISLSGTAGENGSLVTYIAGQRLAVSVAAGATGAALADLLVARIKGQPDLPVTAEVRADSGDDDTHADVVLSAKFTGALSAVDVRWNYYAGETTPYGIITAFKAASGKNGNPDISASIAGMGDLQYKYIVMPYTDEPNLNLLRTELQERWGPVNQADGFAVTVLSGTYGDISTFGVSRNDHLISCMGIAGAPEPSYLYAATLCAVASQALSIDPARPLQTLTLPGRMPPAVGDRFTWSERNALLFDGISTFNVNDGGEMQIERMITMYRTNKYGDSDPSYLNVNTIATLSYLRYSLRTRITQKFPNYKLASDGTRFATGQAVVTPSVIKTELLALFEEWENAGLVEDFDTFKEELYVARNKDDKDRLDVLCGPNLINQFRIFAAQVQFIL

[2] = molecular target: T2, tail tube protein gp40 (phage Mu) (UniProt P79679); test: as above
T2 sequence: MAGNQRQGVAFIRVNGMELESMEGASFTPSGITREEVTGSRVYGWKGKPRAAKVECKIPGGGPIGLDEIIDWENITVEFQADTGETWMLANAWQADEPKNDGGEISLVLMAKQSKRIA

tail sheath protein gp39 [3] = molecular target: T1, tail sheath protein gp39; test: cryo-EM structure; purified phage Mu virions in the extended state (native phage) in phage buffer (10 mM MgCl2, 5 mM NaCl, 10 mM Tris-HCl, pH 7.4); icosahedral, symmetry-mismatch and local reconstruction; 3.2 Å (3-fold capsid), 3.4 Å (portal-adaptor), 3.5 Å (terminator-tail), 3.3 Å (baseplate); both purified
[4] = molecular target: T2, tail tube protein gp40 (phage Mu); test: as above
hub protein gp44 = molecular target: T3, hub protein gp44 (phage Mu, UniProt P08558 1-379); test: as above
T3 construct: baseplate hub protein gp44 of myophage Mu, as it stands in the virion; Trimer; Model deposited here; source: phage Mu virions grown on E. coli (ATCC 23724), purified (PEG 8000/NaCl precipitation, CsCl gradient)
T3 sequence (looked up): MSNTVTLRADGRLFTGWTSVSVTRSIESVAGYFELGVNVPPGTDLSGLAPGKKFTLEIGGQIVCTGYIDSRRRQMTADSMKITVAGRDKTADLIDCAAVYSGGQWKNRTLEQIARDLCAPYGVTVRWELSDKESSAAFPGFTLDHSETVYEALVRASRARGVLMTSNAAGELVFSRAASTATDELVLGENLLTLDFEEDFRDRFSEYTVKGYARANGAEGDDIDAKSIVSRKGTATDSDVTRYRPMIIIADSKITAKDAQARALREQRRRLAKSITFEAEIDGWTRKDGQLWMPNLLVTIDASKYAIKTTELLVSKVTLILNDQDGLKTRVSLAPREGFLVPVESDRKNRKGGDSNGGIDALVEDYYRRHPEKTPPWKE

[5] = molecular target: T4, spike protein gp45 (phage Mu) (UniProt Q9T1V4); test: as above
T4 sequence: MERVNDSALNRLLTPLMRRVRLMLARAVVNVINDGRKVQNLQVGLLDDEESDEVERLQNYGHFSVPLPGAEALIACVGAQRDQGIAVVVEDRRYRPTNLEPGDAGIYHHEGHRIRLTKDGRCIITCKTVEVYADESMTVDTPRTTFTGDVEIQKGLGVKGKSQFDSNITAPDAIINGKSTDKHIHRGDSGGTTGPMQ

Measured: binding

tail terminator protein gp37 (phage Mu)
binds: tail sheath protein gp39 [1] | [2] | tail sheath protein gp39 [3] | [4]

tape measure protein (TMP) gp42 (phage Mu)
binds: hub protein gp44 | [5]
